## Library screen at single concentrations

Measurements from “University of Dundee, Small-Polar-MMV Screening Library” (2021), ChEMBL document CHEMBL3988442.

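Whole-parasite assay of Trypanosoma brucei over 72 hours; the read-out is not stated. Tested at 30 µM. The record gives no direction; compounds that gave an IC50 in retests scored well above the rest, so higher reads as stronger inhibition. Values scatter widely below zero; nearly all retest evidence comes from the higher of the two concentrations used. Size under these conditions: about 64,000 compounds, about 940 of them at 50% or above in at least one test.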

Values are the deposited “Percent Effect”, in %. The controls that fix the scale are not given in the record; negative values are as filed. This is an unselected part of the compounds tested.

| SMILES | Percent Effect |
|---|---|
| `CC(C)c1cc(C(=O)NCCc2nc3c(s2)CCC3)n(C)n1` | 7.564 |
| `CS(=O)(=O)N1CCOCC2(CCN(C(=O)c3ccco3)CC2)C1` | 18.8 |
| `CCc1nnc2n1CCN(C(=O)c1ccc(C(F)(F)F)nc1C)C2` | 12.49 |
| `O=C(O)C(c1ccc(O)cc1)N1CCC(N2CCSCC2)CC1` (stereo unspecified) | -10.25 |
| `CNc1nc(N2CCN(CC=C(C)C)C(CCO)C2)nc2c1CCC2` (stereo unspecified) | -69.64 |
| `Cc1cc(C2CCCN(CCCS(N)(=O)=O)C2)n[nH]1` (stereo unspecified) | -8.475 |
| `O=C(Nc1cccnc1)NC(CCCO)c1ccccc1` (stereo unspecified) | -19.74 |
| `CC(C)n1cnnc1CN(C)C(=O)c1cc(COc2ccccc2)[nH]n1` | -23.69 |
| `c1coc(-c2nnc([C@H]3CCN(Cc4ccc5c(c4)OCO5)C3)o2)c1` | -0.5134 |
| `O=C(CN1CCSC2(CCCCC2)C1)NCC(F)(F)F` | 27.46 |
| `O=C(O)C(F)(F)F.O=S(=O)(c1ccccc1)N1CCC2(CCCN2Cc2cccc(Cl)c2)C1` (stereo unspecified) | -34.57 |
| `[H][C@@]12CCN(C(=O)CC3Cc4ccccc4C3)C[C@]1([H])OCCNC2=O` | -14.91 |
| `Cn1cc(C2(C)CN(Cc3ccc(Cl)c(F)c3)CCO2)cn1` (stereo unspecified) | -19.32 |
| `CCC(CN1CCCCC1)NC(=O)C1(c2cccc(F)c2)CC1.O=C(O)CC(O)(CC(=O)O)C(=O)O` (stereo unspecified) | 13.02 |
| `N#Cc1ccc(NCC(=O)Nc2ncn(Cc3cccnc3)n2)cc1` | -7.183 |
| `CCNC(=O)NCCCn1nc2ccccn2c1=O` | -18.3 |
| `CN(Cc1csc(-c2cccs2)n1)Cc1cccnc1N` | -56.42 |
| `CC(C)Cc1nc(CSCC(=O)N2CCC(C)CC2)no1` | -8.279 |
| `O=C(O)C(F)(F)F.O=C(O)C(F)(F)F.O=S(=O)(c1ccccc1)N1CCC2(CCCN2Cc2cccnc2)C1` (stereo unspecified) | -446.5 |
| `O=C(NC1CC1)N1CCCC2(CCNC2=O)C1` (stereo unspecified) | -19.64 |
| `Cc1nnc(NC(=O)CN2CCCC2c2noc(C(C)C)n2)s1` (stereo unspecified) | 14.76 |
| `Cc1ccc(S(=O)(=O)N(C)Cc2cnccn2)cc1N(C)C` | -17.09 |
| `CCOc1cccc(C(=O)Nc2ccncc2)c1` | -1.219 |
| `Cc1cc(C(=O)N2CCc3nnc(N)cc3C2)c(C)n1-c1ccccc1` | -29.37 |
| `Cc1cc(C)n(CC(C)NC(=O)c2cc(CN3CCC(O)CC3)on2)n1` (stereo unspecified) | -43.4 |
| `O=C(O)CC(O)(CC(=O)O)C(=O)O.[H][C@@]12CC[C@@](O)(c3ccc(C)cn3)[C@]1([H])CN(Cc1cc(C)c(O)c(C)c1)C2` | 27.71 |
| `CC(C)(O)CNc1ccc(C#N)c(C(F)(F)F)c1` | -32.59 |
| `CNS(=O)(=O)c1ccc(CCC(=O)NCc2cccc(OC)c2)cc1` | -23.28 |
| `CCN(C(=O)c1ccc2nnc(C3CCN(S(C)(=O)=O)C3)n2c1)C(C)C` (stereo unspecified) | -41.71 |
| `Cc1cc(C(=O)NCc2cccnc2N2CCCC(O)C2)[nH]n1` (stereo unspecified) | -22.04 |
| `CC(=O)Nc1ccc(OCc2noc(C(=O)N3CCCCCC3)n2)cc1` | -12.69 |
| `Cc1nocc1C(=O)N1CCCC2(CCN(c3cnn(C)c3)C2=O)C1` (stereo unspecified) | 16.99 |
| `Cc1sc(NC(=O)CCC(=O)O)c(C(N)=O)c1-c1ccc(Cl)cc1Cl` | -5.232 |
| `CC(C)N1CCCC(N2CCOC3(CCCC3)C2)C1=O` (stereo unspecified) | -15.63 |
| `O=C(COc1ccccc1)N1CCCC1c1ccc[nH]1` (stereo unspecified) | -33.55 |
| `Cc1nn(C)cc1-c1cc(C(F)F)nc2sc(C(N)=O)c(N)c12` | -4.66 |
| `Nc1c(N2CCOCC2)ncnc1N1CCOCC1` | -8.78 |
| `Cn1cc(CN2CCC(F)(F)C3(CCN(c4cnccn4)C3)C2)cn1.O=C(O)C(F)(F)F.O=C(O)C(F)(F)F` (stereo unspecified) | -3.113 |
| `Cc1ccsc1CNCC1CCCN1c1cccnn1` (stereo unspecified) | -17.72 |
| `CCCn1ncc(-c2nc3c(cnn3CC)[nH]2)c1C` | -4.737 |
| `CC(NC(=O)NCCCn1cccn1)c1ccc2c(c1)NC(=O)CO2` (stereo unspecified) | -7.888 |
| `Cc1cnc(N)nc1NCCSCc1[nH]cnc1C` | -5.59 |
| `Cc1cc(CN(C)C(=O)c2cccc(CCC(C)(C)O)c2)no1` | -15.92 |
| `[H][C@@]12C[C@H](C(=O)NC3CC3)CN(Cc3ccco3)[C@]1([H])CCO2` | -0.439 |
| `O=C(c1cccc(F)c1Cl)N(CCO)CC1CC1` | -18.51 |
| `COC(=O)NCC(=O)N(C)CC1Cc2ccccc2CN1C` (stereo unspecified) | -13.76 |
| `O=C(Cn1cccn1)N1CCC(c2nnc(-c3ccsc3)o2)CC1` | -16.65 |
| `[H][C@]12CC[C@]([H])(CN(Cc3ccccn3)C1)N(CC(=O)Nc1ccn(C)n1)C2` | -16.83 |
| `O=C(O)C(F)(F)F.[H][C@@]12COC[C@]1(COCC)CN(Cc1ccc3c(c1)OCO3)C2` | -7.953 |
| `O=C(O)C(F)(F)F.[H][C@@]12CN(C(=O)c3ccco3)C[C@]1([H])CN(c1ccccn1)C2` | -14.51 |
| `O=C(CCCc1cn[nH]c1)N1CCOCC(O)C1` (stereo unspecified) | -61.49 |
| `Cc1cc(C)n(-c2cncc(NCCNC(=O)C(C)C)n2)n1` | -20.02 |
| `CC(NC(=O)CNC(=O)OC(C)(C)C)c1ccc(Cl)s1` (stereo unspecified) | -17.29 |
| `CC(C)CCOc1ccc(C(C)NC(=O)CSCC(N)=O)cc1` (stereo unspecified) | 0.1036 |
| `Cc1cccc(NC(=O)C2CC(=O)n3cnnc3S2)c1` (stereo unspecified) | -5.039 |
| `CC(C)N(C)C(=O)C1CSCN1S(=O)(=O)c1cc(Cl)ccc1Cl` (stereo unspecified) | -54.74 |
| `COC(=O)C(c1cc(F)ccc1F)N(C)C(=O)c1ccccn1` (stereo unspecified) | 5.203 |
| `CS(=O)(=O)Cc1ccc(C(=O)Nc2ccc3c(c2)C(=O)NC3)cc1` | -3.731 |
| `CO[C@H]1CN(C(C)C)C[C@@H]1NC(=O)c1cc(-c2ccccc2F)n[nH]1` | 38.89 |
| `Cc1csc2c(C3CCCN(C(=O)CCn4cncn4)C3)nc(C)n12` (stereo unspecified) | 0.513 |
| `CC(C)Oc1ccc(CNC(=O)C2CCC(=O)N2)cn1` (stereo unspecified) | -35.13 |
| `CN1CCN(CC2(O)CCCN(S(=O)(=O)c3cn[nH]c3)CC2)CC1` (stereo unspecified) | -18.11 |
| `Cn1cncc1CN1CCC(O)(Cn2nc(-c3cccs3)oc2=O)CC1.O=C(O)CC(O)(CC(=O)O)C(=O)O` | -14.56 |
| `O=C(CN1CCc2[nH]c3ccccc3c2C1)NCc1ccco1` | -21.65 |
| `CN(C)CCCNC(=O)c1ccc(Cl)cc1Cl` | 13.67 |
| `CN1CCN(C2COC3(CCN(c4ccc(C#N)cc4)CC3)C2)CC1.O=C(O)C(F)(F)F` (stereo unspecified) | -31.63 |
| `O=C(O)C(F)(F)F.O=C(O)C(F)(F)F.O=C(c1cccnc1)N1Cc2nccn2CC(COc2cccnc2)C1` (stereo unspecified) | -9.09 |
| `CS(=O)(=O)NCCCNCc1cc(F)ccc1Br` | -38.77 |
| `CN1C(=O)CC(c2ccccc2)C12CCN(C(=O)c1ccc[nH]1)CC2` (stereo unspecified) | -12.32 |
| `CC(C)Cc1cc(CNC(=O)C2CCCN(Cc3ccco3)C2)no1` (stereo unspecified) | -15.55 |
| `[H][C@@]12CN(C(=O)c3cnccn3)C[C@]1([H])CN(c1cc(OC)ncn1)C2` | -83.73 |
| `Cc1nnc(NCC2(c3ccccc3)CCC2)c(C#N)c1C` | -24.07 |
| `CC(C)C(C)NC(=O)Nc1cccn(C)c1=O` (stereo unspecified) | -91.75 |
| `COc1cc(C#N)ccc1OC12CCCN(CC1)C2` (stereo unspecified) | -13.64 |
| `Cn1nc(CN2CCCC2)c2c1CN(C(=O)c1cnccn1)CC2` | -89.52 |
| `CC(=O)NCc1ccc(C(=O)N2CCCc3c(F)ccc(C)c32)o1` | -4.207 |
| `CCc1nc(C)c(C(=O)N2CCCN(Cc3cnn(C)c3)CC2)s1` | 22.03 |
| `Cc1nnc(NC(=O)CN2CCc3c(nc(C4CC4)n3C)C2)s1` | -16.61 |
| `CN(C)CCN1CCOCC2(CCCN(C(=O)c3ccccn3)C2)C1.O=C(O)C(F)(F)F.O=C(O)C(F)(F)F` (stereo unspecified) | -16.41 |
| `Cn1ccc(C(=O)N2CCCC2c2cc[nH]n2)n1` (stereo unspecified) | -14.48 |
| `O=C(NCCN1CCOCC1)NCc1ccccc1-n1cccn1` | 9.488 |
| `[H][C@]12CC[C@]([H])(CN(CC(=O)N(C)C)C1)N(Cc1ccccc1OCCO)C2` | -39.8 |
| `CC(C)COC(=O)N1[C@@H](c2ccco2)[C@@H](CO)C[C@]12CCCCNC2=O` | -21.28 |
| `CCc1nc(CN2CCCC(N(C)Cc3cnc(C)s3)C2)no1` (stereo unspecified) | -23.44 |
| `Cl.Cl.NCC(=O)N1CCCC(c2cncc(Nc3ncccn3)n2)C1` (stereo unspecified) | 3.118 |
| `Br.Cc1cc(C)nc(NCCC(=O)NCCn2ccnc2C)n1` | -41.54 |
| `Cc1cc(C)n(CC2CCN(CC(O)COc3ccccc3)CC2)n1` (stereo unspecified) | -31.71 |
| `O=C(CCn1ccc2ccc(Br)cc21)NCc1ccc(C(=O)O)cc1` | -6.971 |

The last 9 entries again:

* Cn1ccc(C(=O)N2CCCC2c2cc[nH]n2)n1 (stereo unspecified) | -14.48%
* O=C(NCCN1CCOCC1)NCc1ccccc1-n1cccn1 | 9.488%
* [H][C@]12CC[C@]([H])(CN(CC(=O)N(C)C)C1)N(Cc1ccccc1OCCO)C2 | -39.8%
* CC(C)COC(=O)N1[C@@H](c2ccco2)[C@@H](CO)C[C@]12CCCCNC2=O | -21.28%
* CCc1nc(CN2CCCC(N(C)Cc3cnc(C)s3)C2)no1 (stereo unspecified) | -23.44%
* Cl.Cl.NCC(=O)N1CCCC(c2cncc(Nc3ncccn3)n2)C1 (stereo unspecified) | 3.118%
* Br.Cc1cc(C)nc(NCCC(=O)NCCn2ccnc2C)n1 | -41.54%
* Cc1cc(C)n(CC2CCN(CC(O)COc3ccccc3)CC2)n1 (stereo unspecified) | -31.71%
* O=C(CCn1ccc2ccc(Br)cc21)NCc1ccc(C(=O)O)cc1 | -6.971%